US20240025903A1, “Bicyclic Compounds and Uses Thereof for the Treatment of Diseases” (Athira Pharma, Inc., priority 2020, published 2024)
At least one structure is not confirmed: it was looked up by name or label, or the drawing left a doubt.

By UniProt entry, the sequences of proteins in these tests, tags left out. Residues count along the entry.
UniProt P08581, 308-1390 limits assumed: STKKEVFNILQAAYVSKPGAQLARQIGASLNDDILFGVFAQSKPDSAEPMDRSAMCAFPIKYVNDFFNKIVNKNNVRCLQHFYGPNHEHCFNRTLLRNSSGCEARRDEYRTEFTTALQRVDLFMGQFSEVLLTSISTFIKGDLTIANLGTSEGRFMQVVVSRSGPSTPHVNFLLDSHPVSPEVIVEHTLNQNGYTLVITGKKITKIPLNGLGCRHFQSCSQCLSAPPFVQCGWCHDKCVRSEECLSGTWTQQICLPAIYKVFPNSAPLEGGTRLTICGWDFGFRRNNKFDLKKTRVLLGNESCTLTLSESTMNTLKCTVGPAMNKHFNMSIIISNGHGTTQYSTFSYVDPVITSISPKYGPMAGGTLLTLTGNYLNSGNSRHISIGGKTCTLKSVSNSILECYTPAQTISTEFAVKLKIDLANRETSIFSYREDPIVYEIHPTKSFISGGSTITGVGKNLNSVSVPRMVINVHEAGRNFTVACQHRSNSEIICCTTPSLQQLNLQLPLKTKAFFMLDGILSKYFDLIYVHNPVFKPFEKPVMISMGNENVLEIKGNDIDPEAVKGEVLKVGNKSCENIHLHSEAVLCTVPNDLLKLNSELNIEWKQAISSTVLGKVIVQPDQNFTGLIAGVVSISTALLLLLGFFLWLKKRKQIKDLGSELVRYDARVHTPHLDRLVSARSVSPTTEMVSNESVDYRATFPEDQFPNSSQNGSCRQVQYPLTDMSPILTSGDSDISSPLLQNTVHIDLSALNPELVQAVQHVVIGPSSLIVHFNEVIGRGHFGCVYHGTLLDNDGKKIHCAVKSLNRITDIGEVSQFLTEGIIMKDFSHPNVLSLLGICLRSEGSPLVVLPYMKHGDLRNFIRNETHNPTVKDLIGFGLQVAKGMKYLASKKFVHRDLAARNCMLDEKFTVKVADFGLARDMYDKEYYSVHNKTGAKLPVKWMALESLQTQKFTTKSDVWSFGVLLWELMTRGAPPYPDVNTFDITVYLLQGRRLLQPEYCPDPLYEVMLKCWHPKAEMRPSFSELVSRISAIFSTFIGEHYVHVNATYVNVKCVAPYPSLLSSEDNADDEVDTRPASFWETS
UniProt P14210, 32-494 limits assumed: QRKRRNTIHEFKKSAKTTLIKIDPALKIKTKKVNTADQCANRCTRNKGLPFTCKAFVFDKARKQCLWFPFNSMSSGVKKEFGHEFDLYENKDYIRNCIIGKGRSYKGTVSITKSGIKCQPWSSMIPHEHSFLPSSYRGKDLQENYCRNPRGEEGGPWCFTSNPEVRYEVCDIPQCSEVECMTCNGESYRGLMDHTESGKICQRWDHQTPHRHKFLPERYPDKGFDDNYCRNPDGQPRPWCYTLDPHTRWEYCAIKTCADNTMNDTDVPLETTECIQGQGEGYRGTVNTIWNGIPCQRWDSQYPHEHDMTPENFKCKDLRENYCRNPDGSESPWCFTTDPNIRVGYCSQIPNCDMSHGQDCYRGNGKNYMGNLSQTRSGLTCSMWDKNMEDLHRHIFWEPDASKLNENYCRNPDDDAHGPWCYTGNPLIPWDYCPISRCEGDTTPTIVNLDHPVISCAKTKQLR

Assays:
[1] = molecular target: T1, HGF/MET system (Homo sapiens, UniProt P08581+P14210); assay: Phospho-MET ELISA; type: cell-based; conditions: HEK293 cells, 1 ng/mL recombinant HGF, 15 minutes, pMET ELISA
T1 construct: HEK293 cells were prepared by passage into 6-well multi-plates; endogenous in cells; host or cells: HEK293
Protocol: Compounds were screened for potency towards the HGF/MET system using phospho-MET (pMET) ELISA kits (Cell Signaling). pMET levels were detected in samples having low (1 ng/mL) and high (10 ng/mL) concentrations of HGF.
HEK293 cells were prepared by passage into 6-well multi-plates and grown at 37° C. at 5% CO2 in DMEM+10% FBS until approximately 90% confluent. Cells were then starved for at least 8 hours in serum-free growth media.
Exemplary compounds were prepared in DMEM+0.1% FBS, diluted and added to treatment media with 1 ng/mL recombinant HGF protein (R&D Systems). Cells were incubated in triplicate at 37° C. and 5% CO2 for 15 minutes. Samples were then treated with 180 μL ice-cold RIPA (radioimmunoprecipitation assay) buffer and cells were lysed on ice for 15 minutes. Lysates were cleared by centrifugation at 16,000-g for 15 minutes and the supernatant was retained. […]
Between 50 and 100 μg total protein lysate was loaded into ELISA wells in pMET Sandwich ELISA kit (Cell Signaling Catalog #7227C), ensuring equal protein load in each well. […] After color developed, absorbance was read on an optical plate reader at 450 nm.
Potency measurements were determined using peak efficacy by scaling test compound dose treatments along a scale of 1-10 between 1 ng/mL and 10 ng/mL HGF doses according to the following formula: […]

[2] = tested on: MDCK cells; assay: Cell scattering behavior assay; type: cell-based; conditions: 5 ng/mL HGF, 24 hours, normalized particle count vs HGF alone
Protocol: MDCK cells were grown under normal conditions and observed to spontaneously form tight colonies as they proliferate. MDCK cells respond to HGF treatment by moving away from each other (scattering), which is quantified to assess the amount of HGF/MET activation in the cell population. In this experiment, MDCK cells were plated in a 96-well format, treated with HGF and exemplary compounds, fluorescently stained, imaged in large fields, and scattering behavior was quantified. Quantification was determined by analyzing the number of continuous groups of cells compared to the total stained area imaged (normalized particle counts).
MDCK cells were plated at low density in black-walled imaging plates and allowed to attach overnight at 37° C. and 5% CO2 in DMEM+10% FBS. Cells were then starved to 2 hours in DMEM without FBS (“starve media”). Samples containing exemplary compounds were prepared in DMEM without FBS and included 5 ng/mL HGF protein (“treatment media”). A control curve was also prepared for each plate using HGF concentrations of 0, 5, 10, and 20 ng/mL. […]
Fields of cells were imaged using an iCyte high content imager in the green wavelength. Images were converted to binary and analyzed for particle size and particle count. […] Compound potency was assessed by statistical increase in normalized particle count compared to HGF treatment alone.

**Q.** Which results are given for `CC1C(=O)N(CC2CCC2)CC2N(C(=O)c3ccc(OC(F)F)cc3)CCC(=O)N12` (centres unmarked) [Compound 14]?
**A.** Potency (augmentation of MET phosphorylation) [1]: ++++ (++++ indicates maximum potency at or above 0.1 nM); Potency (cell scattering) [2]: +++ (+++ indicates maximum potency at or above 1 nM)
